In patent US20100113464A1, “NOVEL PYRIDAZINE DERIVATIVES” (SYNGENTA CROP PROTECTION, INC., priority 2006, published 2010):
Some of these results come from one statement about several compounds together.

Key:
Format in all cases: in vivo
[1] = test system: Alternaria solani; test: Alternaria solani/Tomato/Preventive (action against Alternaria on tomato); conditions: 200 ppm, preventive spray, tomato plants cv. Roter Gnom, assessed after 4 days incubation; untreated controls infected over 80%
Method: (§1) Alternaria solani/Tomato/Preventive (Action Against Alternaria on Tomato) 4 weeks old tomato plants cv. Roter Gnom are treated with the formulated test compound in a spray chamber. Two days after application tomato plants are inoculated by spraying a spore suspension on the test plants. After an incubation period of 4 days at 22° C./18° C. and 95% r.h. in a greenhouse the disease incidence is assessed.

[2] = test system: Septoria tritici; test: Septoria tritici/Wheat/Preventive (action against Septoria leaf spot on wheat); conditions: 200 ppm, preventive spray, wheat plants cv. Riband, assessed 16-18 days after inoculation; untreated controls infected over 80%
Method: Septoria tritici/Wheat/Preventive (Action Against Septoria Leaf Spot on Wheat) 2 weeks old wheat plants cv. Riband are treated with the formulated test compound in a spray chamber. One day after application wheat plants are inoculated by spraying a spore suspension (10^6 conidia/ml) on the test plants. After an incubation period of 1 day at 22° C./21° C. and 95% r.h. plants are kept at 22° C./21° C. and 70% r.h. in a greenhouse. The disease incidence is assessed 16-18 days after inoculation.

[3] = test system: Magnaporthe arisea (Pyricularia oryzae); conditions: 200 ppm, preventive spray, rice plants cv. Koshihikari, assessed after 6 days incubation; untreated controls infected over 80%
[4] = test system: Uncinula necator; test: Uncinula necator/Grape/Preventive (action against powdery mildew on grape); conditions: 200 ppm, preventive spray, grape seedlings cv. Gutedel, assessed after 7 days incubation; untreated controls infected over 80%
Method: Uncinula necator/Grape/Preventive (Action Against Powdery Mildew on Grape) 5 weeks old grape seedlings cv. Gutedel are treated with the formulated test compound in a spray chamber. One day after application grape plants are inoculated by shaking plants infected with grape powdery mildew above the test plants. After an incubation period of 7 days at 24° C./22° C. and 70% r.h. under a light regime of 14/10 h (light/dark) the disease incidence is assessed.

[5] = test system: Botrytis cinerea; test: Botrytis cinerea/Tomato/Preventive (action against Botrytis on tomato); conditions: 200 ppm, preventive spray, tomato plants cv. Roter Gnom, assessed after 3 days incubation; untreated controls infected over 80%
Method: as §1, with “Botrytis cinerea/Tomato/Preventive (Action” for “Alternaria solani/Tomato/Preventive (Action”, “Against Botrytis” for “Against Alternaria”, “of 3” for “of 4”, “at 20°” for “at 22° C./18°”, “95% r. h.” for “95% r.h.”

[6] = test system: Puccinia recondite; test: Puccinia recondite/Wheat/Preventive (action against brown rust on wheat); conditions: 200 ppm, preventive spray, wheat plants cv. Arina, assessed 11 days after inoculation; untreated controls infected over 80%
Method: Puccinia recondite/Wheat/Preventive (Action Against Brown Rust on Wheat) 1 week old wheat plants cv. Arina are treated with the formulated test compound in a spray chamber. One day after application wheat plants are inoculated by spraying a spore suspension ([…] uredospores/ml) on the test plants. After an incubation period of 1 day at 20° C. and 95% r h. plants are kept for 10 days 20° C./18° C. (day/night) and 60% r.h. in a greenhouse. The disease incidence is assessed 11 days after inoculation.

[7] = test system: Pyrenophora teres (Helminthosporium teres); test: Pyrenophora teres (Helminthosporium teres)/Barley/Preventive (action against net blotch on barley); conditions: 200 ppm, preventive spray, barley plants cv. Regina, assessed after 4 days incubation; untreated controls infected over 80%
Method: Pyrenophora teres (Helminthosporium teres)/Barley/Preventive (Action Against Net Blotch on Barley) 1-week-old barley plants cv. Regina are treated with the formulated test compound in a spray chamber. Two days after application barley plants are inoculated by spraying a spore suspension (2.6×10^4 conidia/ml) on the test plants. After an incubation period of 4 days at 20° C. and 95% r.h. the disease incidence is assessed.

Cc1nnc(F)c(-c2c(F)cc(F)cc2F)c1-c1ccc(Br)s1 [I.l.197]
at least 80%: inhibit fungal infestation [1] | inhibits fungal infestation [2] | inhibit fungal infestation [3] | inhibit fungal infestation [4] | inhibit fungal infestation [5] | inhibits fungal infestation [6]

Cc1nnc(F)c(-c2c(F)cc(F)cc2F)c1-c1ccc(Cl)s1 [I.j.197]
at least 80%: inhibit fungal infestation [7] | inhibit fungal infestation [1] | inhibits fungal infestation [2] | inhibit fungal infestation [3] | inhibit fungal infestation [4] | inhibit fungal infestation [5] | inhibits fungal infestation [6]

Cc1nnc(F)c(-c2c(F)cc(F)cc2F)c1-c1cc(Br)c(C)s1 [I.k.197]
at least 80%: inhibit fungal infestation [7] | inhibit fungal infestation [1] | inhibits fungal infestation [2] | inhibit fungal infestation [3] | inhibit fungal infestation [4] | inhibit fungal infestation [5] | inhibits fungal infestation [6]

Cc1nnc(C)c(-c2c(F)cc(F)cc2F)c1-c1cc(Br)c(C)s1 [I.k.200]
at least 80%: inhibit fungal infestation [7] | inhibit fungal infestation [1] | inhibits fungal infestation [2] | inhibit fungal infestation [3] | inhibit fungal infestation [4] | inhibits fungal infestation [6]

COc1nnc(C)c(-c2ccc(Br)s2)c1-c1c(F)cc(F)cc1F [I.l.199]
at least 80%: inhibit fungal infestation [7] | inhibit fungal infestation [1] | inhibits fungal infestation [2] | inhibit fungal infestation [3] | inhibit fungal infestation [4] | inhibit fungal infestation [5] | inhibits fungal infestation [6]

Cc1nnc(Cl)c(-c2c(F)cc(F)cc2F)c1-c1cc(Br)c(C)s1 [I.k.198]
at least 80%: inhibit fungal infestation [7] | inhibit fungal infestation [1] | inhibits fungal infestation [2] | inhibit fungal infestation [3] | inhibit fungal infestation [4] | inhibit fungal infestation [5] | inhibits fungal infestation [6]

Cc1nnc(Cl)c(-c2c(F)cc(F)cc2F)c1-c1ccc(Br)s1 [I.l.198]
at least 80%: inhibit fungal infestation [7] | inhibit fungal infestation [1] | inhibits fungal infestation [2] | inhibit fungal infestation [3] | inhibit fungal infestation [4] | inhibit fungal infestation [5] | inhibits fungal infestation [6]

Cc1nnc(C)c(-c2c(F)cc(F)cc2F)c1-c1ccc(Br)s1 [I.l.200]
at least 80%: inhibit fungal infestation [7] | inhibit fungal infestation [1] | inhibits fungal infestation [2] | inhibit fungal infestation [3] | inhibit fungal infestation [4] | inhibit fungal infestation [5] | inhibits fungal infestation [6]

Cc1nnc(Cl)c(-c2c(F)cc(F)cc2F)c1-c1ccc(Cl)nc1 [I.ae.198]
at least 80%: inhibit fungal infestation [7] | inhibit fungal infestation [1] | inhibits fungal infestation [2] | inhibit fungal infestation [3] | inhibit fungal infestation [4] | inhibit fungal infestation [5] | inhibits fungal infestation [6]

Cc1nnc(C)c(-c2c(F)cc(F)cc2F)c1-c1ccc(Cl)nc1 [I.ae.200]
at least 80%: inhibit fungal infestation [7] | inhibit fungal infestation [1] | inhibits fungal infestation [2] | inhibit fungal infestation [3] | inhibit fungal infestation [4] | inhibit fungal infestation [5] | inhibits fungal infestation [6]

Cc1nnc(Cl)c(-c2c(F)cc(F)cc2F)c1-c1ccc(Cl)s1 [I.j.198]
at least 80%: inhibit fungal infestation [7] | inhibit fungal infestation [1] | inhibits fungal infestation [2] | inhibit fungal infestation [3] | inhibit fungal infestation [4] | inhibit fungal infestation [5] | inhibits fungal infestation [6]

COc1nnc(C)c(-c2ccc(Cl)nc2)c1-c1c(F)cc(F)cc1F [I.ae.199]
at least 80%: inhibit fungal infestation [1] | inhibits fungal infestation [2] | inhibit fungal infestation [3] | inhibit fungal infestation [4] | inhibit fungal infestation [5] | inhibits fungal infestation [6]

Cc1nnc(C)c(-c2c(F)cc(F)cc2F)c1-c1ccc(Cl)s1 [I.j.200]
at least 80%: inhibit fungal infestation [7] | inhibit fungal infestation [1] | inhibits fungal infestation [2] | inhibit fungal infestation [3] | inhibit fungal infestation [5] | inhibits fungal infestation [6]

COc1nnc(C)c(-c2ccco2)c1-c1c(F)cc(F)cc1F [I.a.199]
at least 80%: inhibit fungal infestation [7] | inhibits fungal infestation [2] | inhibit fungal infestation [3] | inhibit fungal infestation [4] | inhibit fungal infestation [5]

COc1nnc(C)c(-c2ccc(Cl)s2)c1-c1c(F)cc(F)cc1F [I.j.199]
at least 80%: inhibit fungal infestation [7] | inhibit fungal infestation [1] | inhibits fungal infestation [2] | inhibit fungal infestation [3] | inhibit fungal infestation [4] | inhibit fungal infestation [5] | inhibits fungal infestation [6]

Cc1nnc(Cl)c(-c2c(F)cc(F)cc2F)c1-c1ccco1 [I.a.198]
at least 80%: inhibit fungal infestation [7] | inhibit fungal infestation [1] | inhibits fungal infestation [2] | inhibit fungal infestation [3] | inhibit fungal infestation [4] | inhibit fungal infestation [5] | inhibits fungal infestation [6]
